Results taken from PMC3265452 (PLoS Neglected Tropical Diseases, 2012).

The chains behind the UniProt entries cited, without tags or fusion partners. Residues count along the entry.
UniProt H6D5H2, 1-476: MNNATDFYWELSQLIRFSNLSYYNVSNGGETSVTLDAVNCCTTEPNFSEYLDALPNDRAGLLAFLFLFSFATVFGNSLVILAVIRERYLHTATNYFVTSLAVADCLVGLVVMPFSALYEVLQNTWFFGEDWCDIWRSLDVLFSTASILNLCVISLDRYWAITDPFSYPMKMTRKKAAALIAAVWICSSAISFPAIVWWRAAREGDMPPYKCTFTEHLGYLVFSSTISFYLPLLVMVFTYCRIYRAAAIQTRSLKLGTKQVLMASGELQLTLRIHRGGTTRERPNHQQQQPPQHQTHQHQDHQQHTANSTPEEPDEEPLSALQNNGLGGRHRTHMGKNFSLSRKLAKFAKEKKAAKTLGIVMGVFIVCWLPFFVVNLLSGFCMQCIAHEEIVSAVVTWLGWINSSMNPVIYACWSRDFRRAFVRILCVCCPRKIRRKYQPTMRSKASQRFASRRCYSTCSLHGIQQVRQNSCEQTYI

Target: AaDOP2 (Aedes aegypti, UniProt H6D5H2)
Assay: AaDOP2 antagonist screen of the LOPAC1280 library (HEK-CRELuc-Aadop2 cells, luminescence)
Type: cell-based

SMILES: COc1ccc(CC(C)NCC(O)c2ccc(O)c(NC=O)c2)cc1 (stereo not shown) [Compound 538, Formoterol]
- Compound effect (percent receptor signaling in presence of test compound, relative lux units relative to the SCH23390 control): 91
